The values below come from PubChem BioAssay AID1671190 (National Center for Advancing Translational Sciences (NCATS), 2021).

Protein sequences, listed by entry. Tags and fused reporters are not part of them.
UniProt P18054, whole entry, looked up: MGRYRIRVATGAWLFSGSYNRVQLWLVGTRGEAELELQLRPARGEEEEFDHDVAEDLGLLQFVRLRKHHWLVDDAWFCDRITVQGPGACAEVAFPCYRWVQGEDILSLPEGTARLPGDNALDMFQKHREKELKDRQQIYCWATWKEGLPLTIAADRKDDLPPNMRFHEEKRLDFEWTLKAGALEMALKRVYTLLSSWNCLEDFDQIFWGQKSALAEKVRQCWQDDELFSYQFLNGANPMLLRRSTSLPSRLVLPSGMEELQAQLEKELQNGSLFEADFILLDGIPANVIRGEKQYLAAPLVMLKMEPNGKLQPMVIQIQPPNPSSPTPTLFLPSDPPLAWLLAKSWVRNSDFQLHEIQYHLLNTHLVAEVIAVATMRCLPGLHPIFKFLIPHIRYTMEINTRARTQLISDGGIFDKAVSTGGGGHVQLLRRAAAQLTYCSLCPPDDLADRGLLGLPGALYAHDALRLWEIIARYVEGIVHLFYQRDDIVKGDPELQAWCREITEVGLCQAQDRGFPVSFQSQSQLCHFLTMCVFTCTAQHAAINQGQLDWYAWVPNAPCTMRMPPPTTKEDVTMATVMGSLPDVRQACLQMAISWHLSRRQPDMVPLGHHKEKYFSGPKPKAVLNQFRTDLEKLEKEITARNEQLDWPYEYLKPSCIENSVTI

In all, about 580,000 compounds went through this assay and about 6,100 (1.1%) were called active. About 15% were inconclusive and are not listed. The call rests on the fitted dose curve; in most records, active means well fitted inhibition curve with a large enough effect; inconclusive means small, poorly fitted or top-dose-only effect, or another doubt; inactive means no such curve, though single readings can be large or run the other way. The entries are a selection whose mix differs from that of the whole data set. Where no call is shown, the source filed none.
On the % scale 0 is the no-effect control and ±100 the full control effect; potency means the concentration at half of the fitted maximal effect.

The assay concerns the target Polyunsaturated fatty acid lipoxygenase ALOX12 (Homo sapiens) (UniProt P18054). As to the kind of experiment: Primary qHTS assay for inhibitors of human arachidonate 12S-lipoxygenase (ALOX12): Round 2. The following applies: purified 12hLO, xylenol orange hydroperoxide absorbance; activity change, negative = inhibition: at 0.00344 µM (top of the series) unless noted. A digest of the protocol: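 Purified human 12hLO at 150 nM in 25 mM Hepes, 0.01% Triton X-100, pH 7.0, preincubated 15 min at room temperature with compound. Reaction started with 40 uM arachidonic acid, 30 min at room temperature. Hydroperoxide measured by Fe-xylenol orange, 573/405 nm absorbance ratio.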
On to `Cc1onc(-c2ccccc2Cl)c1C(=O)N[C@@H]1C(=O)N2[C@@H]1SC(C)(C)[C@@H]2C(=O)O`, for which the activity change, negative = inhibition was found to be 17.4%. Turning to `NC(N)=NC(=O)Cc1c(Cl)cccc1Cl`, the activity change, negative = inhibition is -13%. As for `COC(=O)C1=C(C(=O)OC)C(c2ccccc2O)c2sc(=O)[nH]c2S1` (stereo not drawn), the Potency is active: 44.7 µM.

Turning to `CN(N=O)C(=O)N[C@@H]1[C@@H](O)[C@H](O)[C@@H](CO)O[C@@H]1O`, the activity change, negative = inhibition was 28.1%.

Take `COc1ccc(O)cc1`: the activity change, negative = inhibition was found to be 50.2%. Take `COc1cc(-c2cc(C(=O)Nc3ccc(O)cc3)c3ccccc3n2)cc(OC)c1OC`: the Potency is active: 44.7 µM. As to `CC1=C(O)C(=O)CO1`, the Potency is active: 25.1 µM. For the molecule `O=S(CC(O)c1ccccc1)c1ccccc1` (stereo not drawn), the Potency is active: 28.2 µM. On to `CC1=NN(c2ccccc2)C(=O)C1`, for which the activity change, negative = inhibition worked out at 6.61%. For `CCN(CC)CCNC(=O)c1cc(Cl)c(N)cc1OC`, the activity change, negative = inhibition is -18%.

Consider `CN(C)C/C=C(/c1ccc(Br)cc1)c1cccnc1`, for which the activity change, negative = inhibition came to 9.24%. As for `O=C(Cc1cccc(F)c1)N1CCC2(CC1)NC(=O)N(c1cccc(F)c1)N2`, the Potency was active: 6.31 µM. Turning to `CCCNc1nc(NCc2ccccc2OC)c2cnn(C)c2n1`, the Potency was active: 39.8 µM. For the molecule `CCOc1ccc2ccccc2c1C(=O)N[C@@H]1C(=O)N2[C@@H]1SC(C)(C)[C@@H]2C(=O)O`, the activity change, negative = inhibition was -4.07%. As to `NC/C=C/C(=O)O`, the activity change, negative = inhibition amounted to 50.8%.

With `Cc1ccc(Nc2nc(-c3cccc(N4C(=O)c5ccccc5C4=O)c3)cs2)cc1`, the Potency is active: 17.8 µM. With `CC(C)COc1cccc(C(=O)NC(=S)Nc2cccc(NC(=O)c3ccccc3Cl)c2)c1`, the Potency is active: 28.2 µM. Regarding `COC(=O)C1=C(C)NC(C)=C(C(=O)O[C@@H]2CCCN(Cc3ccccc3)C2)[C@@H]1c1cccc([N+](=O)[O-])c1`, the activity change, negative = inhibition is -18.9%.

With `Cn1c(-c2ccc(-c3ccccc3)cc2)c[nH]c1=S`, the Potency was active: 39.8 µM. Regarding `CC(C)[N+](C)(CCOC(=O)C1c2ccccc2Oc2ccccc21)C(C)C`, the activity change, negative = inhibition is -1.56%. Still for that read-out and setting: in the case of `CN1CCC[C@@H]1Cc1c[nH]c2ccc(CCS(=O)(=O)c3ccccc3)cc12` it was 12.3%; in that of `COC(=O)c1ccccc1C(=O)c1ccc(OCCN2CCCCC2)cc1`, -14.3%; in that of `CC(C)OC(=O)c1cc2c(OCC(O)CNC(C)(C)C)cccc2[nH]1` (stereo not drawn), 12.2%.

For the molecule `COc1cc(C(=S)N2CCOCC2)cc(OC)c1OC`, the activity change, negative = inhibition was 12.6%.

`O=C(c1ccncc1)N(c1ccc(N2CCOCC2)cc1)C(c1ccccc1)c1nc2ccccc2[nH]1` (stereo not drawn): the Potency was active: 11.2 µM.

As to `Cc1cccc(OCC(=O)N2CCC3(CC2)NC(=O)N(c2cccc(F)c2)N3)c1`, the Potency is active: 2.24 µM.

As for `CC(=O)[C@H]1CC[C@H]2[C@@H]3C=CC4=CC(=O)CC[C@@]4(C)[C@@H]3CC[C@]12C`, the activity change, negative = inhibition amounted to 17.4%. For `COc1ccc(/C=C/c2cc(C(=O)O)c3ccccc3n2)cc1OC`, the Potency is active: 17.8 µM. `CC[C@]1(O)C[C@H]2CN(CCc3c([nH]c4ccccc34)[C@@](C(=O)OC)(c3cc4c(cc3OC)N(C=O)[C@H]3[C@@](O)(C(=O)OC)[C@H](OC(C)=O)[C@]5(CC)C=CCN6CC[C@]43[C@@H]65)C2)C1`: the activity change, negative = inhibition amounted to 23.3%. For the molecule `CCc1nnc(N/N=C/c2c(C)[nH]c3ccccc23)n1N`, the Potency is active: 31.6 µM. Regarding `N#Cc1cc(NC(=O)C(=O)O)c(Cl)c(NC(=O)C(=O)O)c1`, the activity change, negative = inhibition is -22.5%. Consider `O=C1NC(=Nc2ccc(Cl)cc2)/C(=C/c2ccco2)S1`, for which the Potency is active: 25.1 µM. With `COc1ccc(OC(=O)N(CC(=O)O)Cc2ccc(OCCc3nc(-c4ccccc4)oc3C)cc2)cc1`, the activity change, negative = inhibition was -34.3%. Regarding `CCOc1cc(OCC)c(C(=O)CCC(=O)O)cc1OCC`, the activity change, negative = inhibition is 35.5%. `CCN(CC)CCNC(=O)c1c(C)[nH]c(/C=C2\C(=O)Nc3ccc(F)cc32)c1C`: the activity change, negative = inhibition is -5.28%.

As for `Oc1c(Cl)cc(Cl)c(Cl)c1Cc1c(O)c(Cl)cc(Cl)c1Cl`, the activity change, negative = inhibition turned out to be 4.55%. With `Cc1c(N(C)C)c(=O)n(-c2ccccc2)n1C`, the activity change, negative = inhibition is -0.0781%. In the case of `Cc1ccc2c(c1)c1c3n2CCN(C(=O)CCl)C3CCC1` (stereo not drawn), the Potency was active: 11.2 µM. For the molecule `NS(=O)(=O)c1ccc(N2CCCCS2(=O)=O)cc1`, the activity change, negative = inhibition amounted to 36.4%. Still for that read-out and setting: as for `CC(C(=O)O)c1ccc2c(c1)[nH]c1ccc(Cl)cc12` (stereo not drawn), the figure is -53.5%.

For the molecule `CCS(=O)(=O)c1ccc2oc(Nc3ccc(C(C)C)cc3)nc2c1`, the Potency was active: 7.08 µM. With `CCCCc1cc2ccccc2c(OCCN(C)C)n1`, the activity change, negative = inhibition is -11%. Turning to `CC(C)c1cc2c(cc1S(=O)(=O)O)[C@@]1(C)CCC[C@@](C)(C(=O)O)[C@@H]1CC2`, the activity change, negative = inhibition is 15.1%. On to `CN(C)C(=O)C(CCN1CCC(O)(c2ccc(Cl)cc2)CC1)(c1ccccc1)c1ccccc1`, for which the activity change, negative = inhibition is -24.1%. Take `O=C(O)c1ccc(OCCCOc2ccc(C(=O)O)cc2)cc1`: the activity change, negative = inhibition is 48.4%. In the case of `c1ccc2[nH]ccc2c1`, the activity change, negative = inhibition amounted to 18.1%. Consider `COc1cc2c(N3CCN(C(=O)Nc4ccc(OC(C)C)cc4)CC3)ncnc2cc1OCCCN1CCCCC1`, for which the activity change, negative = inhibition is -10.3%. As to `COc1ccc(CCN(C)CCCN2CCc3cc(OC)c(OC)cc3CC2=O)cc1OC`, the activity change, negative = inhibition came out at 37.1%.

Regarding `CN1CCN(C2=Nc3cc(F)ccc3Cc3ccccc32)CC1`, the activity change, negative = inhibition was -27.6%. For `Cc1cccc(C)c1NC(=O)c1ccc(N)cc1`, the activity change, negative = inhibition came to 30.7%. On to `Cc1oc(-c2ccccc2)nc1CCC(=O)c1ccc(CC2SC(=O)NC2=O)cc1` (stereo not drawn), for which the activity change, negative = inhibition was 14.2%. Turning to `O=S(=O)(O)c1ccc(O)cc1`, the activity change, negative = inhibition is -24%. For `O=C(C1CCCCC1)N1CC(=O)N2CCc3ccccc3C2C1` (stereo not drawn), the activity change, negative = inhibition is -31.5%. In the case of `CCN(CC)CC(=O)Oc1ccc(NC(C)=O)cc1`, the activity change, negative = inhibition is -21%. Regarding `CCOC(=O)[C@]12CCC=C1N(Cc1ccc3c(c1)OCO3)C(=O)[C@H](CC(=O)NCCc1ccccc1OC)C2`, the Potency is active: 39.8 µM.

Turning to `COC(=O)c1ccc(OC(=O)/C=C/c2ccc(Br)o2)cc1`, the Potency was active: 11.2 µM. Consider `O=C(O)[C@H](O)c1ccccc1`, for which the activity change, negative = inhibition was -4.61%. As to `COc1ccnc2c1CCCCC2S(=O)c1nc2ccccc2[nH]1` (stereo not drawn), the activity change, negative = inhibition came out at 44.6%. As to `COc1cccc(CC(=O)N2CCC3(CC2)NC(=O)N(c2cccc(F)c2)N3)c1`, the Potency was active: 5.01 µM. Turning to `Cc1ccc(-n2c(O)c(C=Nc3ccccc3-c3n[nH]c(=S)[nH]c3=O)c3ccccc3c2=O)c(C)c1`, the Potency is active: 15.8 µM. Same read-out and setting: as for `O=C(N[C@@H]1CN(Cc2ccc(F)cc2)C[C@H]1CO)c1ccccc1`, the figure is active: 12.6 µM. On to `COc1ccc2c(c1OC)C(=O)O[C@@H]2[C@H]1c2c(cc3c(c2OC)OCO3)CCN1C`, for which the activity change, negative = inhibition was -19.3%. As for `CCCCCCSc1ccc([C@@H]2[C@@H]3C(=O)N(CC)C(=O)[C@@H]3[C@]3(C(=O)OC)CCCCN23)cc1OC`, the Potency is active: 17.8 µM.
